The target of this assay is Rpn11-TBHA (mouse knock-in, Psmd14^TBHA) (mouse) (UniProt O35593). Put plainly: affinity purification with mass spectrometry; 26S proteasomes purified by the TBHA-streptavidin system, eluted by TEV cleavage, MS; WT cells (compared with Rpt2-G2A cells), two independent MS experiments.

By UniProt entry, the sequences of proteins in these tests, tags left out.
UniProt O35593: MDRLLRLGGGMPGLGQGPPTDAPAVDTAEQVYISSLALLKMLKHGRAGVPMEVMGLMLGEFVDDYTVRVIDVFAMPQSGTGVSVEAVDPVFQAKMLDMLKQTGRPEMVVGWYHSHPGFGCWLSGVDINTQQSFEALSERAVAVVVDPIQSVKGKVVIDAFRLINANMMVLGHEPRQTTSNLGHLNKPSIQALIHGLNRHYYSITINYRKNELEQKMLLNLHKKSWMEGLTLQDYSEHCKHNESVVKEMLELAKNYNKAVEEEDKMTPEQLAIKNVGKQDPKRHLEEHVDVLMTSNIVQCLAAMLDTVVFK
UniProt Q06180: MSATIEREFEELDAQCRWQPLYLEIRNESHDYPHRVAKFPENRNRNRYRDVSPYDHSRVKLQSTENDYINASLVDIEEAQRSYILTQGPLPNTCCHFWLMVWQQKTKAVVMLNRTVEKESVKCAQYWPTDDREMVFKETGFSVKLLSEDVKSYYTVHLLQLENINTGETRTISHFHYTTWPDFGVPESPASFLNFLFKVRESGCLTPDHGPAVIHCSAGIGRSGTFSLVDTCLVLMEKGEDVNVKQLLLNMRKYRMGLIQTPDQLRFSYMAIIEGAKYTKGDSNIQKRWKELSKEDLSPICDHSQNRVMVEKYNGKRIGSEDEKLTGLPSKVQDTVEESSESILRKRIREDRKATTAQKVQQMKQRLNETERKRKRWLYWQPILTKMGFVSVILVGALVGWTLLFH

No constants are given. Whether binding was seen depends on the method and setting. In cells and extracts the contact can be indirect. Here binding means that the protein was enriched with, or labelled near, the bait; the list need not be complete.

Turning to “membrane-localized tyrosine phosphatase PTPN2 (from UniProt Q06180 1-406) (enzyme)”, the binding entry is “binds”.

The record behind these values is PMC10686573.
